Results are given in words; binding and its absence hold for the method and conditions named. In cells and extracts the contact can be indirect. Some results given as binding are weak or reduced against the parent protein; the word gives no strength.

By UniProt entry, the sequences of proteins in these tests, tags left out.
UniProt Q99LJ7: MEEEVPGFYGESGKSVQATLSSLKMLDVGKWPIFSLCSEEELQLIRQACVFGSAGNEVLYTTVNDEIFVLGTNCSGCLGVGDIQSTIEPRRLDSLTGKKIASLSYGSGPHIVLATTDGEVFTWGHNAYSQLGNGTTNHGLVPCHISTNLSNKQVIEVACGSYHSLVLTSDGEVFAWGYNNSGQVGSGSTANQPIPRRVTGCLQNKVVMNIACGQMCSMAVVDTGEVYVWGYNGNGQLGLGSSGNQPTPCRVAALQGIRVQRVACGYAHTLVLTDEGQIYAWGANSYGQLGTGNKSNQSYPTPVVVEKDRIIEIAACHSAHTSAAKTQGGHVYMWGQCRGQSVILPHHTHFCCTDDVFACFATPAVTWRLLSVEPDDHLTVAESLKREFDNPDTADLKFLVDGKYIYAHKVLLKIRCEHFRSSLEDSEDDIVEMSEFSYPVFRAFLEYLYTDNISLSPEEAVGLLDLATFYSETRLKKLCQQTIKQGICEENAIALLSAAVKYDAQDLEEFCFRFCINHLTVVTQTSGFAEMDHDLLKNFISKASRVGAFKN

T1: CEP128 (UniProt Q8BI22)
T1 sequence: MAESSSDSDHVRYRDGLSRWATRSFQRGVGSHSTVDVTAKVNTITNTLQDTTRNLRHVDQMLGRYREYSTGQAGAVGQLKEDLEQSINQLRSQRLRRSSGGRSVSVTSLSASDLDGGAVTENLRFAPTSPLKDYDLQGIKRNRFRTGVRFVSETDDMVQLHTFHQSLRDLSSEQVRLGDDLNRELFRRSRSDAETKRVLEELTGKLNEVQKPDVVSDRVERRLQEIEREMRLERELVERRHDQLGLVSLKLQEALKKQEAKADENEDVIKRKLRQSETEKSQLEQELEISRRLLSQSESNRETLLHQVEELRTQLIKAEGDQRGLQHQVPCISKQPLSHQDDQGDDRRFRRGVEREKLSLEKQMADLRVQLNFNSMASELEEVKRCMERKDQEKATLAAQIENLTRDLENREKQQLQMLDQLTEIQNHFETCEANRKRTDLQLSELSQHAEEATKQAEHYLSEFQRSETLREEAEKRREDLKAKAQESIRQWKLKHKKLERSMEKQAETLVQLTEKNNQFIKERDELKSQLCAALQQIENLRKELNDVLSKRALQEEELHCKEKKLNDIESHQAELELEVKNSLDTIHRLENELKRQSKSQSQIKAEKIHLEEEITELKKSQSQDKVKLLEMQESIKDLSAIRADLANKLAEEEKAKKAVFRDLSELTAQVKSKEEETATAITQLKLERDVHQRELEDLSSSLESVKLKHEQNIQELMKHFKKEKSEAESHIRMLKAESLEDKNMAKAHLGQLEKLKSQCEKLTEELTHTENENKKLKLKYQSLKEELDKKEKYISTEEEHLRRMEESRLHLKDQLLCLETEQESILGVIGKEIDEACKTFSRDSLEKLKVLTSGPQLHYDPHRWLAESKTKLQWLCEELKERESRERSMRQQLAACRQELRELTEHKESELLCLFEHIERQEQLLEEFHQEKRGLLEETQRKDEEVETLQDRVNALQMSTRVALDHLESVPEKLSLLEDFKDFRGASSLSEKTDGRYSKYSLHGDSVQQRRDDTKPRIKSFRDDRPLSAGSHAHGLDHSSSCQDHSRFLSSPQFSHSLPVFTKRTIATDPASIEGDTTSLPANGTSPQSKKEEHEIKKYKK

B1: Crisp1 (protein, UniProt Q03401 20-244)
chain: QDSSQENRLEKLSTTKMSVQEEIVSKHNQLRRMVSPSGSDLLKMEWNYDAQVNAQQWADKCTFSHSPIELRTTNLRCGENLFMSSYLASWSSAIQGWYNEYKDLTYDVGPKQPDSVVGHYTQVVWNSTFQVACGVAECPKNPLRYYYVCHYCPVGNYQGRLYTPYTAGEPCASCPDHCEDGLCTNSCGHEDKYTNCKYLKKMLSCEHELLKKGCKATCLCEGKIH
B2: Wbp2nl (protein, UniProt Q9D529 1-359)
chain: MAVNQNHTVDRRWAAIPHGESLLKKCSEVDLSFPQSPPGSNLFSGTKRGALFLTSYRVIFVTSRADNDPMFSFTMPFHLMNNCTVEQPIFGANYIKGTIQAAPDGGWEGSATFKIVFRKGGAIDFAQLMAKAASAAAQGVPLRVASFWMGPLGIYVITGDRNMYAPQAYQVAYGAPPAGYGASPVGYGVPSAGYGAPPAGYGAPPVGYVAPSPGYDVLPPGYGAVRYGSPPPLYVATPMGYGVPPPGYGPPPVRYGSPPPGYEAPTMEYGAQPPRYGTTPMGSGSPPPRYEAPPMGYGTPPSGRESIPPGSRATSVAQEAPPAGSEAGHPMSVAVQNPEFQASFPSTSSSQVHSPRSKM
B3: Prss55 (protein, UniProt Q14BX2 17-294)
chain: NVECGVRPLYDSRIQYSRIIEGQEAELGEFPWQVSIQESDHHFCGGSILSEWWILTVAHCFYAQELSPTDLRVRVGTNDLTTSPVELEVTTIIRHKGFKRLNMDNDIALLLLAKPLTFNELTVPICLPLWPAPPSWHECWVAGWGVTNSTDKESMSTDLMKVPMRIIEWEECLQMFPSLTTNMLCASYGNESYDACQGDSGGPLVCTTDPGSRWYQVGIISWGKSCGKKGFPGIYTVLAKYTLWIEKIAQTEGKPLDFRGQSSSNKKKNRQNNQLSKS

This assay addresses T1, CEP128. Put plainly: co-IP; lysates in RIPA buffer with protease and phosphatase inhibitors; incubated with target antibodies overnight at 4 °C; Protein A/G magnetic beads 1 h at room temperature; washed three times (20 mM HEPES, 15% glycerol, 250 mM KCl, 0.2 mM EDTA, 1% NP-40); immunoblot. (A western blot detects proteins with antibodies after separation by electrophoresis.)
Turning to Rcbtb2 (from UniProt Q99LJ7 1-551), the binding entry is “binds”.
With B1, the binding result is listed as “binds”.
On to B2, for which the binding result was “binds”.
Consider B3, for which the binding result was “binds”.

For the origin of these results see PMC8927350.
